Source: PubChem BioAssay AID493014 (National Center for Advancing Translational Sciences (NCATS), 2011)
The other results are listed elsewhere or left out. These are further read-outs of the screen, such as a control signal, another cell line or another target. No call is given for them. Most of these compounds were active or inconclusive in the main read-out, so they are no random draw. Potencies come from curve fits of mixed quality, noted in brackets.

Experiment: qHTS Assay to Find Inhibitors of Chronic Active B-Cell Receptor Signaling
Conditions: ABC-DLBCL IkBa-CBG/CBR reporter, luminescence ratio (green luciferase fused to IkBa over red control in TMD8 lymphoma cells), 4 h
Procedure, shortened: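 TMD8 ABC-DLBCL cells carrying doxycycline-inducible green luciferase fused to IkappaBalpha plus unfused red luciferase were exposed to compounds (up to 46 uM) for 4 hrs at 37C. Activity came from the overlap-corrected green/red luminescence ratio.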

[1] = measured here: CBR red luminescence, cell number
[2] = measured here: IkBa-CBG green luminescence

COc1ccc(C(C(=O)NC2CCCCC2)N(C(=O)c2ccco2)c2ccccc2C(C)=O)cc1OC (configuration not stated)
AC50 [1]: 4.47 µM [falling, partial curve, poor fit]

Cc1cc(C)n(CC(=O)n2nc(C)cc2C)n1
AC50 [1]: 0.259 µM [rising, full curve, poor fit]

CCOC(=O)CSc1cc(-c2ccccc2)nc2ncnn12
AC50 [1]: 7.94 µM [falling, partial curve, poor fit]

COc1cccc(C(=O)Nc2ncc3c(n2)CC(C)CC3=O)c1 (configuration not stated)
AC50 [1]: 2.91 µM [falling, full curve]

Cc1ccc(NNC(=O)c2cc(C)on2)c(C)c1
AC50 [1]: 35.5 µM [rising, single point]

COc1ccc(C(=O)N2CCN(c3cccc(C)c3C)CC2)cc1S(=O)(=O)NC1CC1
AC50 [1]: 25.9 µM [falling, partial curve, poor fit]

O=C(Nc1cccc(NC(=O)c2ccccc2)n1)c1ccccc1
AC50 [1]: 1.41 µM [rising, full curve, poor fit]

COc1cccc(/C=N/NC(=O)c2ccc3nc[nH]c3c2)c1
AC50 [1]: 11.2 µM [falling, single point]

Cn1c(SCC(=O)NC(c2ccccc2)c2ccccc2)nnc1-c1cccs1
AC50 [1]: 23.1 µM [falling, single point]

Cc1ccccc1NC(=O)c1c(-c2ccccc2)noc1C
AC50 [1]: 29.1 µM [rising, single point]

CNc1ccc(Br)cc(C(=O)/C=C/c2cccc(OC)c2OC)c1=O
AC50 [1]: 3.26 µM [falling, full curve, poor fit]

O=C(Nc1ccccc1)N1CCn2c1nc1ccccc12
AC50 [1]: 0.206 µM [falling, full curve, poor fit]

O=C(O)c1ccc(Cl)cc1Nc1nc2cc(Cl)ccc2o1
AC50 [1]: 3.16 µM [rising, single point]

Cc1ccc2oc(=O)c3cnn(CC(=O)N(Cc4ccco4)C4CCCCC4)c3c2c1
AC50 [1]: 2.59 µM [falling, partial curve, poor fit]

O=C(c1ccc(Cl)c(Cl)c1)N1CCC(=O)N(C(COCc2ccc(Cl)cc2)Cc2ccccc2)CC1 (configuration not stated)
AC50 [1]: 23.1 µM [falling, single point]

CC(=O)N1N=C(c2cccs2)CC1c1ccc(Br)cc1 (configuration not stated)
AC50 [1]: 6.31 µM [rising, single point]

O=C(COc1ccc2ccccc2c1)N1CCCC1
AC50 [1]: 29.1 µM [falling, single point]

C=CCOC(=O)c1ccc(-n2cnc(C)n2)nc1
AC50 [1]: 10 µM [rising, partial curve, poor fit]

O=C1c2ccccc2C(Nc2ccccc2)N1c1ccc(Cl)cn1 (configuration not stated)
AC50 [1]: 25.9 µM [rising, partial curve, poor fit]

C[C@H](NC(=O)c1ccccc1Cl)C(=O)OCCOc1cccc(Cl)c1
AC50 [1]: 14.1 µM [rising, single point]

O=C(NC1CCCCC1)c1cc(-n2cnnc2)ccc1Cl
AC50 [1]: 35.5 µM [rising, single point]

CC(=O)Nc1ccc(NC(=O)COC(=O)Cc2c[nH]c3ccccc23)cc1
AC50 [1]: 6.51 µM [rising, single point]

O=C(COc1ccc(-n2cnnn2)cc1)Nc1ccc(F)c(Cl)c1
AC50 [1]: 1.84 µM [rising, partial curve, poor fit]

S=c1[nH]nc(Cc2ccc(Cl)cc2)o1
AC50 [1]: 12.6 µM [rising, partial curve]

COc1ccc(-c2cn3ccc(C)cc3n2)cc1
AC50 [1]: 8.91 µM [falling, partial curve, poor fit]

CC(=O)Nc1ccc(C(=O)OCc2ccc(Br)cc2)cc1
AC50 [1]: 4.11 µM [rising, full curve]

CCOC(=O)c1ccc(NC(=O)Cn2ncc(Cl)c(Cl)c2=O)cc1
AC50 [1]: 7.31 µM [falling, partial curve] | AC50 [2]: 32.6 µM [rising, partial curve, poor fit]

CCNC(=S)NNC(=O)c1cc(-c2ccc(OC)cc2)nc2ccccc12
AC50 [1]: 9.2 µM [falling, partial curve]

Cc1ccc(-n2cc(C(=O)c3cc(Cl)ccc3O)cc(C#N)c2=O)cc1
AC50 [1]: 14.6 µM [falling, partial curve, poor fit]

CCOc1cccc(C(=O)Nc2cc(C)ccc2NC(=O)c2ccco2)c1
AC50 [1]: 11.2 µM [falling, partial curve]

CCC(=O)Nc1cc(=O)[nH]c2nc(-c3ccc(Cl)cc3)nn12
AC50 [1]: 0.316 µM [rising, full curve, poor fit]

CN(c1ccccc1)S(=O)(=O)c1cccc(NC(=O)CSc2ncc(C(F)(F)F)cc2Cl)c1
AC50 [1]: 25.9 µM [falling, partial curve]

COc1ccc(/C=N/NC(=O)c2ccc(NC(=O)c3cccc([N+](=O)[O-])c3)cc2)c(C(=O)O)c1OC
AC50 [1]: 11.2 µM [falling, partial curve, poor fit]

COc1ccc(CCN2C(=O)/C(=C\c3ccco3)SC2=S)cc1OC
AC50 [1]: 35.5 µM [falling, single point] | AC50 [2]: 35.5 µM [falling, single point]

CCOC(=O)c1ccc(NC(=S)N(CCN2CCCCCC2)Cc2ccco2)cc1
AC50 [1]: 1 µM [falling, full curve, poor fit]

COc1ccccc1N(C(=O)c1snc(C(N)=O)c1N)C(C(=O)NC1CCCC1)c1ccco1 (configuration not stated)
AC50 [1]: 10 µM [falling, partial curve]

CSc1nc(N)nc(SCCS(=O)(=O)c2ccc(Cl)cc2)c1C#N
AC50 [1]: 8.2 µM [falling, partial curve, poor fit] | AC50 [2]: 23.1 µM [rising, single point]

N=c1c(S(=O)(=O)c2ccc(Cl)cc2)cc2c(=O)n3ccccc3nc2n1C1CCCCC1
AC50 [1]: 11.2 µM [falling, partial curve, poor fit]

O=C(CNC(=O)c1ccccc1)Nc1ccsc1C(=O)O
AC50 [1]: 20 µM [falling, single point]

COc1cc(/C=C/C(=O)OCC(=O)NCc2ccco2)cc(OC)c1OC
AC50 [1]: 29.1 µM [rising, single point]

CCn1nccc1C(=O)Nc1nccs1
AC50 [1]: 2.59 µM [falling, partial curve, poor fit]

CCCCNC(=S)N/N=C/c1cccc(OCC)c1O
AC50 [1]: 0.355 µM [falling, full curve, poor fit]

CCOC(=O)N1CCC(NC(=O)C2CCCN(Cc3nc(-c4cccc(C)c4)oc3C)C2)CC1 (configuration not stated)
AC50 [1]: 2.82 µM [rising, single point]

Clc1ccc(Cc2noc(-c3cccs3)n2)cc1
AC50 [1]: 20 µM [rising, partial curve, poor fit]

CN(C)/C=C1\C(=O)ON=C1c1ccccc1
AC50 [1]: 12.6 µM [falling, single point]

Cc1nc(NCCc2ccc(F)cc2)c(C#N)c(C)c1[N+](=O)[O-]
AC50 [1]: 20.6 µM [falling, partial curve, poor fit]

C/C(=N\NC(=O)c1ccc(C)cc1)C1C(=O)c2ccccc2C1=O
AC50 [1]: 10.3 µM [falling, partial curve]

COc1cc(/C=N/NC(=O)CNc2n[nH]c(=O)[nH]c2=O)ccc1OCc1ccccc1
AC50 [1]: 20 µM [rising, partial curve, poor fit]

CCCN1Cc2cccc(C(=O)N3CCN(c4cc(Cl)ccc4C)CC3)c2C1=O
AC50 [1]: 1.84 µM [falling, partial curve, poor fit]

O=C(CN1C2CCC1CC(NC(=O)Nc1ccccc1)C2)NCc1ccco1 (configuration not stated)
AC50 [1]: 5.62 µM [rising, partial curve]

C/C(=N\Nc1nncc2ccccc12)c1ccc(O)cc1
AC50 [1]: 15.8 µM [falling, partial curve, poor fit]

CCC(NC(=S)NCc1ccc(F)cc1)c1ccc(C)cc1 (configuration not stated)
AC50 [1]: 10 µM [falling, partial curve]

COc1ccc(N2CC(NC(=O)C3CCCC3)CC2=O)cc1OC (configuration not stated)
AC50 [1]: 14.1 µM [falling, single point]

Cc1occc1-c1nnc(SCC(=O)Nc2nccs2)n1Cc1ccco1
AC50 [1]: 35.5 µM [falling, single point]

O=C(COc1ccc2ccccc2c1)NCCn1ccc2ccccc21
AC50 [1]: 7.31 µM [rising, single point]

Fc1ccc2nc(Nc3nc4cc5c(cc4s3)OCCO5)sc2c1
AC50 [1]: 0.731 µM [rising, full curve, poor fit]

COC(=O)c1ccccc1NC(=O)NCc1ccccc1
AC50 [1]: 8.91 µM [falling, partial curve, poor fit]

CC1CCN(c2nc(-c3ccccc3O)nc3ccccc23)CC1
AC50 [1]: 0.447 µM [falling, full curve, poor fit]

CCOc1ccccc1C1N=C(c2ccc(OC)cc2)CC(c2ccccc2O)N1 (configuration not stated)
AC50 [1]: 2.82 µM [falling, full curve, poor fit]

Cc1ccc(/C=N/NC(=O)c2cc(C)oc2C)o1
AC50 [1]: 16.4 µM [falling, single point]

Cc1nnc(NC(=O)CC(NC(=O)C(F)(F)F)c2ccccc2)s1 (configuration not stated)
AC50 [1]: 1.84 µM [falling, partial curve, poor fit]

O=C(Cc1cnn(-c2ccccc2)c1)c1ccc(O)c(O)c1O
AC50 [1]: 3.66 µM [rising, single point]

O=C(C[n+]1ccc(/C=N/O)cc1)NC(=O)Nc1ccccc1
AC50 [1]: 2.31 µM [rising, full curve, poor fit]

COC(=O)c1sccc1NN1C(=O)c2ccccc2C1=O
AC50 [1]: 35.5 µM [falling, partial curve, poor fit]
